This assay addresses alpha-bungarotoxin, biotin conjugate (UniProt P60615). Put plainly: pull-down.

By UniProt entry, the sequences of proteins in these tests, tags left out. Residues count along the entry.
UniProt P60615, 22-95: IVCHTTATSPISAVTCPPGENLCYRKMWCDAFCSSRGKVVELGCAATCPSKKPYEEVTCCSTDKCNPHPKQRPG
UniProt P04756, 21-230: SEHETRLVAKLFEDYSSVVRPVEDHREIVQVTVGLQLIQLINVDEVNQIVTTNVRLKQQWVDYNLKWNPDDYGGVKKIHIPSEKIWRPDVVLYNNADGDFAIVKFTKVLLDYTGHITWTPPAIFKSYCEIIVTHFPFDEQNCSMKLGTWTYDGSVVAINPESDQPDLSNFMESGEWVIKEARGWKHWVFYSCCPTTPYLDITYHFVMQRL

Results are given in words; binding and its absence hold for the method and conditions named. Some entries that bind do so weakly or less than the wild type.

Turning to “GST-tagged α1 nAChR subunit ectodomain (from UniProt P04756 21-230) (domain or fragment)”, the binding result is recorded as “binds”.

The values above are taken from publication doi:10.1101/2020.05.29.123851.
